# Values from PubChem BioAssay AID1224830 (NIAID, 2016).
# Test: 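Host factors that control LPS-induced TNF expression in human macrophages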 (primary screen)
# System: human THP-1 monocytic leukaemia cells, TNF dual-luciferase reporter clone, PMA-differentiated to macrophage-like cells
# Reagents: siRNA pool against human genes, 50 nM
# Duration: LPS for 4 h, given about 3 days after siRNA transfection
# Treatment: bacterial LPS (TLR4 ligand), 10 ng/ml
# Read-out: 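TNF firefly reporter luminescence divided by renilla, normalised to the plate median, then turned into a robust z-score for each replicate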
# Scale: TNF reporter robust z-score: higher = stronger TNF reporter response to LPS
# Hit rule: 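Each well counts as active if its z-score is over 2.8 or under -1.5; controls are left without a call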
# This is an unselected part of about 18,000 reagents tested. About 2,900 of them (16%) count as active. 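Calls are made per well; low scores hint the gene aids the LPS response, high scores that it dampens it.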 Repeated entries: four replicate wells of each siRNA pool.
gene symbol,PubChem SID,TNF reporter robust z-score,activity call
DPH3,SID315463846,0.3,inactive
DPH3,SID315463846,0.33,inactive
DPH3,SID315463846,0.08,inactive
DPH3,SID315463846,-0.93,inactive
SLC35A5,SID315457359,0,inactive
SLC35A5,SID315457359,-1.66,active
SLC35A5,SID315457359,0.96,inactive
SLC35A5,SID315457359,1.4,inactive
ZNF765,SID315460936,0,inactive
ZNF765,SID315460936,-0.36,inactive
ZNF765,SID315460936,-0.15,inactive
ZNF765,SID315460936,-0.61,inactive
RHOG,SID315447395,0.59,inactive
RHOG,SID315447395,0.55,inactive
RHOG,SID315447395,-0.45,inactive
RHOG,SID315447395,0.81,inactive
ATP5PB,SID315447471,-0.56,inactive
ATP5PB,SID315447471,1.45,inactive
ATP5PB,SID315447471,-0.64,inactive
ATP5PB,SID315447471,-0.05,inactive
PSME3,SID315453895,-0.25,inactive
PSME3,SID315453895,-0.59,inactive
PSME3,SID315453895,-0.64,inactive
PSME3,SID315453895,-0.53,inactive
NUP107,SID315458276,0.75,inactive
NUP107,SID315458276,-0.13,inactive
NUP107,SID315458276,1.97,inactive
NUP107,SID315458276,-0.6,inactive
GSTM2,SID315449081,0.1,inactive
GSTM2,SID315449081,-0.06,inactive
GSTM2,SID315449081,0,inactive
GSTM2,SID315449081,0.96,inactive
RTN4RL1,SID315462294,0.21,inactive
RTN4RL1,SID315462294,-0.56,inactive
RTN4RL1,SID315462294,-0.49,inactive
RTN4RL1,SID315462294,-0.16,inactive
KCTD3,SID315456500,0.93,inactive
KCTD3,SID315456500,2.01,inactive
KCTD3,SID315456500,1.65,inactive
KCTD3,SID315456500,1.25,inactive
MUC1,SID315450077,-0.81,inactive
MUC1,SID315450077,0.09,inactive
MUC1,SID315450077,-0.35,inactive
MUC1,SID315450077,-0.07,inactive
FCAMR,SID315460142,-1.07,inactive
FCAMR,SID315460142,-1.26,inactive
FCAMR,SID315460142,-1.06,inactive
FCAMR,SID315460142,-0.39,inactive
KIF18B,SID315462307,1.25,inactive
KIF18B,SID315462307,0.43,inactive
KIF18B,SID315462307,1.22,inactive
KIF18B,SID315462307,0.57,inactive
SPATA21,SID315464347,-0.34,inactive
SPATA21,SID315464347,-0.04,inactive
SPATA21,SID315464347,0,inactive
SPATA21,SID315464347,0.31,inactive
TLL1,SID315451892,-1,inactive
TLL1,SID315451892,0.32,inactive
TLL1,SID315451892,-1.24,inactive
TLL1,SID315451892,-1.11,inactive
LRPPRC,SID315453840,0.22,inactive
LRPPRC,SID315453840,0.01,inactive
LRPPRC,SID315453840,1.17,inactive
LRPPRC,SID315453840,0.28,inactive
GGCT,SID315459158,0.42,inactive
GGCT,SID315459158,0.63,inactive
GGCT,SID315459158,0.75,inactive
GGCT,SID315459158,0.94,inactive
PIK3R1,SID315450593,-0.05,inactive
PIK3R1,SID315450593,0.37,inactive
PIK3R1,SID315450593,0.16,inactive
PIK3R1,SID315450593,2.23,inactive
STON1-GTF2A1L,SID315463924,-0.97,inactive
STON1-GTF2A1L,SID315463924,-0.8,inactive
STON1-GTF2A1L,SID315463924,0.13,inactive
STON1-GTF2A1L,SID315463924,-0.91,inactive
DNAJC6,SID315453601,1.14,inactive
DNAJC6,SID315453601,0.84,inactive
DNAJC6,SID315453601,0.44,inactive
DNAJC6,SID315453601,1.72,inactive
PTPN11,SID315450958,0.06,inactive
PTPN11,SID315450958,1.51,inactive
PTPN11,SID315450958,-0.66,inactive
PTPN11,SID315450958,-0.71,inactive
UFC1,SID315456747,-0.17,inactive
UFC1,SID315456747,1.29,inactive
UFC1,SID315456747,-0.16,inactive
UFC1,SID315456747,-0.44,inactive
CDAN1,SID315462266,1.63,inactive
CDAN1,SID315462266,0.25,inactive
CDAN1,SID315462266,-0.18,inactive
CDAN1,SID315462266,0.79,inactive
NACC2,SID315462037,-0.06,inactive
NACC2,SID315462037,-0.58,inactive
NACC2,SID315462037,-0.28,inactive
NACC2,SID315462037,-0.3,inactive
CNNM1,SID315455795,-0.37,inactive
CNNM1,SID315455795,0.01,inactive
CNNM1,SID315455795,-0.86,inactive
CNNM1,SID315455795,0.22,inactive
KCNK6,SID315453276,-1.41,inactive
KCNK6,SID315453276,-1.22,inactive
KCNK6,SID315453276,-0.81,inactive
KCNK6,SID315453276,-1.14,inactive
PEF1,SID315465041,-0.45,inactive
PEF1,SID315465041,-0.21,inactive
PEF1,SID315465041,0.03,inactive
PEF1,SID315465041,-0.38,inactive
ACTBL2,SID315464192,-0.02,inactive
ACTBL2,SID315464192,-0.31,inactive
ACTBL2,SID315464192,-0.56,inactive
ACTBL2,SID315464192,-0.81,inactive

Ordered by “TNF reporter robust z-score” (descending): some entries from above
gene symbol,PubChem SID,TNF reporter robust z-score,activity call
DNAJC6,SID315453601,1.72,inactive
CDAN1,SID315462266,1.63,inactive
PTPN11,SID315450958,1.51,inactive
UFC1,SID315456747,1.29,inactive
DNAJC6,SID315453601,1.14,inactive
DNAJC6,SID315453601,0.84,inactive
DNAJC6,SID315453601,0.44,inactive
CDAN1,SID315462266,0.25,inactive
STON1-GTF2A1L,SID315463924,0.13,inactive
PTPN11,SID315450958,0.06,inactive
UFC1,SID315456747,-0.16,inactive
UFC1,SID315456747,-0.17,inactive
CDAN1,SID315462266,-0.18,inactive
UFC1,SID315456747,-0.44,inactive
PTPN11,SID315450958,-0.66,inactive
PTPN11,SID315450958,-0.71,inactive
STON1-GTF2A1L,SID315463924,-0.8,inactive
STON1-GTF2A1L,SID315463924,-0.91,inactive
